Test results from paper PMC10156792, “The structure and evolutionary diversity of the fungal E3-binding protein” (Communications Biology, 2023).
These are yes or no findings as the source states them, for the method shown. Some results given as binding are weak or reduced against the parent protein; the word gives no strength.

Target: N.crassa E2 in the native pyruvate dehydrogenase complex (N.crassa) (UniProt P20285)
Assay: cryo-EM structure; native PDC data EMPIAR-10489 reprocessed; symmetry-expanded consensus alignments only, C3 symmetry, 4.1 Å

binding: binds
B1: N.crassa E2 in the native pyruvate dehydrogenase complex (enzyme, UniProt P20285 29-458)
chain: ASYPPHTVVKMPALSPTMTSGGIGAWQKKPGDKIEPGEVLVEIETDKAQMDFEFQEEGVLAKILKDSGEKDVAVGNPIAILVEEGTDVNAFKDFTLKDAGGETSPAVPKDEPKNESTASAPTPAPTPAPEPENTSFTGRFQTALEREPNALPAAKRLAREKGIDLRNVKGSGPGGKITEEDVKKALASAPAAGAAAAAYTDVPISGMRKTIAARLKESVTENPHFFVSTNLSVSKLLKLRQALNSSADGRYKLSVNDFLIKAMGIASKRVPTVNSSWRDGVIRQFETVDVSVAVATPNGLITPIVKGVEGKGLESISAAVKELAKKARDGKLKPEEYQGGSISISNMGMNPAVQSFTAIINPPQAAILAVGAPQKVAVPVENEDGTTGVSWDEQIIVTASFDHKVVDGAVGAEWIRELKKVIENPLELLL
